Results from PubChem BioAssay AID493014 (National Center for Advancing Translational Sciences (NCATS), 2011).
This is one part of the list. Further columns of the screen follow, without active or inactive calls. Most of these compounds were active or inconclusive in the main read-out, so they are no random draw. Potencies come from curve fits of mixed quality, noted in brackets.

Assay: qHTS Assay to Find Inhibitors of Chronic Active B-Cell Receptor Signaling
Conditions: ABC-DLBCL IkBa-CBG/CBR reporter, luminescence ratio (green luciferase fused to IkBa over red control in TMD8 lymphoma cells), 4 h; measured here: CBR red luminescence, cell number
How it was run: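 TMD8 ABC-DLBCL cells carrying doxycycline-inducible green luciferase fused to IkappaBalpha plus unfused red luciferase were exposed to compounds (up to 46 uM) for 4 hrs at 37C. Activity came from the overlap-corrected green/red luminescence ratio.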
In the case of Cc1ccc(OCCCn2cc(C#N)c3ccccc32)cc1, the AC50 is reported as 32.6 µM [rising, single point].
For COc1ccc(C(=O)NCC(=O)OCCOc2ccc(Cl)cc2)cc1OC, the AC50 was 4.61 µM [rising, partial curve, poor fit].
For COc1ccc(OC)c(NC(=O)NCCc2c[nH]c3ccccc23)c1, the AC50 was 11.2 µM [falling, partial curve].
With O=C(O)Cn1cc(/C=C2/NC(=O)N(c3ccc(Cl)cc3)C2=O)c2ccccc21 the AC50 was 12.6 µM [falling, single point].
For C/C(=N/NC(=O)c1cccc(C)c1)c1c(O)cc(C)oc1=O, the AC50 was 9.2 µM [falling, partial curve].
With O=C(Nc1cccc(C(F)(F)F)c1)c1cnccn1 the AC50 was 35.5 µM [rising, single point].
For CCN(CC)S(=O)(=O)c1ccc(N2CCOCC2)c(NC(=O)c2ccc3c(c2)OCCO3)c1, the AC50 was 2.91 µM [rising, full curve, poor fit].
For COc1ccc(CCNC(=O)C2CCC(CNS(=O)(=O)c3ccc(C)cc3)CC2)cc1OC (stereo not drawn), the AC50 was 3.98 µM [rising, partial curve, poor fit].
For Cc1cccc2c(=O)c(C(=O)N3CCCCCC3)c[nH]c12, the AC50 was 3.55 µM [rising, single point].
With CS(=O)(=O)C1=NSC2=NC(=O)/C(=C\c3ccc(-c4ccccc4)o3)C(=N)N21 the AC50 was 14.6 µM [falling, partial curve].
In the case of COc1ccc(N=C(C)C2=C(O)c3ccccc3C2=O)cc1, the AC50 is reported as 0.206 µM [rising, full curve, poor fit].
For CC(C)CCn1cnc2c(NCc3ccccc3)ncnc21, the AC50 was 29.1 µM [falling, single point].
With COc1ccc(CCN(C(=O)c2ccco2)C(C(=O)NC2CCCC2)c2ccncc2)cc1OC (stereo not drawn) the AC50 was 35.5 µM [falling, single point].
For CC(C)c1ccc2oc(-c3ccc(NC(=O)c4ncn[nH]4)cc3)nc2c1, the AC50 was 1.03 µM [falling, full curve, poor fit].
In the case of CCOc1ccc(C(=O)N2CCN(Cc3ccccc3)CC2)cc1, the AC50 is reported as 17.8 µM [falling, partial curve, poor fit].
For COc1cc(CNCCCN2CCOCC2)c(Br)cc1OCC(=O)Nc1ccccc1C, the AC50 was 15.8 µM [falling, single point].
With Fc1ccccc1COc1ccc(Br)cc1CNCc1cccnc1 the AC50 was 25.1 µM [falling, single point].
In the case of Cc1ccc(NC(=O)C(C)SCc2nc3sc(C)c(C)c3c(=O)[nH]2)nc1 (stereo not drawn), the AC50 is reported as 20.6 µM [rising, single point].
